The list shows a part of the results.
What was measured:
Test in all cases: glycan array binding signal (z-score within array); higher = stronger binding
Conditions in all cases: glycan notation: IUPAC condensed, linker removed
[1] = biological target: Gal(a1-3)Gal(b1-4)GlcNAc(b1-2)Man
Outline: (§1)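 Glycan array data came from 3228 arrays in the Consortium for Functional Glycomics database, and only arrays with an available protein sequence were kept. Glycan names were put into IUPAC-condensed notation, and columns mapping to the same glycan were averaged. The binding signal is a within-array Z-score, averaged across arrays of one protein sequence run at different concentrations or buffers and across linkers. A negative Z-score can be read as non-binding.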

[2] = biological target: Gal(a1-3)Gal(b1-4)GlcNAc(b1-2)Man(a1-3)[Gal(a1-3)Gal(b1-4)GlcNAc(b1-2)Man(a1-6)]Man(b1-4)GlcNAc(b1-4)GlcNAc
Outline: as §1

[3] = biological target: Gal(a1-3)Gal(b1-4)GlcNAc(b1-3)GalNAc
Outline: as §1

[4] = biological target: Gal(a1-3)Gal(b1-4)GlcNAc(b1-6)GalNAc
Outline: as §1

[5] = biological target: Gal(a1-3)Gal(b1-4)[Fuc(a1-3)]GlcNAc
Outline: as §1

[6] = biological target: Gal(a1-3)Gal(b1-4)[Fuc(a1-3)]GlcNAc(b1-2)Man(a1-3)[Gal(a1-3)Gal(b1-4)[Fuc(a1-3)]GlcNAc(b1-2)Man(a1-6)]Man(b1-4)GlcNAc(b1-4)GlcNAc
Outline: as §1

Gal(a1-3)GalNAc = biological target: Gal(a1-3)GalNAc
Outline: as §1

[7] = biological target: Gal(a1-3)[Gal(a1-4)]Gal(b1-4)GlcNAc
Outline: as §1

[8] = biological target: Gal(a1-4)Gal(b1-3)GlcNAc(b1-2)Man(a1-3)[Gal(a1-4)Gal(b1-3)GlcNAc(b1-2)Man(a1-6)]Man(b1-4)GlcNAc(b1-4)GlcNAc
Outline: as §1

Gal(a1-4)Gal(b1-4)Glc = biological target: Gal(a1-4)Gal(b1-4)Glc
Outline: as §1

Gal(a1-4)Gal(b1-4)GlcNAc = biological target: Gal(a1-4)Gal(b1-4)GlcNAc
Outline: as §1

[9] = biological target: Gal(a1-4)Gal(b1-4)GlcNAc(b1-2)Man(a1-3)[Gal(a1-4)Gal(b1-4)GlcNAc(b1-2)Man(a1-6)]Man(b1-4)GlcNAc(b1-4)GlcNAc
Outline: as §1

[10] = biological target: Gal(a1-4)Gal(b1-4)GlcNAc(b1-3)Gal(b1-4)Glc
Outline: as §1

Gal(a1-4)GlcNAc = biological target: Gal(a1-4)GlcNAc
Outline: as §1

Gal(a1-6)Glc = biological target: Gal(a1-6)Glc
Outline: as §1

Gal(b1-2)Gal = biological target: Gal(b1-2)Gal
Outline: as §1

Gal(b1-3)Gal = biological target: Gal(b1-3)Gal
Outline: as §1

Gal(b1-3)Gal(b1-4)GlcNAc = biological target: Gal(b1-3)Gal(b1-4)GlcNAc
Outline: as §1

Gal(b1-3)GalNAc = biological target: Gal(b1-3)GalNAc
Outline: as §1

[11] = biological target: Gal(b1-3)GalNAc(a1-3)[Fuc(a1-2)]Gal(b1-4)Glc
Outline: as §1

[12] = biological target: Gal(b1-3)GalNAc(a1-3)[Fuc(a1-2)]Gal(b1-4)GlcNAc
Outline: as §1

Gal(b1-3)GalNAc(b1-3)Gal = biological target: Gal(b1-3)GalNAc(b1-3)Gal
Outline: as §1

[13] = biological target: Gal(b1-3)GalNAc(b1-3)Gal(a1-4)Gal(b1-4)Glc
Outline: as §1

[14] = biological target: Gal(b1-3)GalNAc(b1-4)Gal(b1-4)Glc
Outline: as §1

[15] = biological target: Gal(b1-3)GalNAc(b1-4)[Neu5Ac(a2-3)]Gal(b1-4)Glc
Outline: as §1

Gal(b1-3)GlcNAc = biological target: Gal(b1-3)GlcNAc
Outline: as §1

[16] = biological target: Gal(b1-3)GlcNAc(a1-3)Gal(b1-4)GlcNAc
Outline: as §1

[17] = biological target: Gal(b1-3)GlcNAc(a1-6)Gal(b1-4)GlcNAc
Outline: as §1

Gal(b1-3)GlcNAc(b1-2)Man = biological target: Gal(b1-3)GlcNAc(b1-2)Man
Outline: as §1

[18] = biological target: Gal(b1-3)GlcNAc(b1-2)Man(a1-3)[Gal(b1-3)GlcNAc(b1-2)Man(a1-6)]Man(b1-4)GlcNAc(b1-4)GlcNAc
Outline: as §1

[19] = biological target: Gal(b1-3)GlcNAc(b1-2)Man(a1-3)[Gal(b1-3)GlcNAc(b1-2)Man(a1-6)]Man(b1-4)GlcNAc(b1-4)[Fuc(a1-6)]GlcNAc
Outline: as §1

[20] = biological target: Gal(b1-3)GlcNAc(b1-2)Man(a1-3)[GlcNAc(b1-4)][Gal(b1-3)GlcNAc(b1-2)Man(a1-6)]Man(b1-4)GlcNAc(b1-4)GlcNAc
Outline: as §1

[21] = biological target: Gal(b1-3)GlcNAc(b1-2)[Gal(b1-3)GlcNAc(b1-6)]Man(a1-6)[Gal(b1-3)GlcNAc(b1-2)Man(a1-3)]Man(b1-4)GlcNAc(b1-4)GlcNAc
Outline: as §1

[22] = biological target: Gal(b1-3)GlcNAc(b1-3)Gal(b1-3)GlcNAc
Outline: as §1

[23] = biological target: Gal(b1-3)GlcNAc(b1-3)Gal(b1-4)Glc
Outline: as §1

[24] = biological target: Gal(b1-3)GlcNAc(b1-3)Gal(b1-4)GlcNAc
Outline: as §1

[25] = biological target: Gal(b1-3)GlcNAc(b1-3)Gal(b1-4)GlcNAc(b1-2)Man(a1-3)[Gal(b1-3)GlcNAc(b1-3)Gal(b1-4)GlcNAc(b1-2)Man(a1-6)]Man(b1-4)GlcNAc(b1-4)GlcNAc
Outline: as §1

[26] = biological target: Gal(b1-3)GlcNAc(b1-3)Gal(b1-4)GlcNAc(b1-2)[Gal(b1-3)GlcNAc(b1-3)Gal(b1-4)GlcNAc(b1-6)]Man(a1-6)[Gal(b1-3)GlcNAc(b1-3)Gal(b1-4)GlcNAc(b1-2)Man(a1-3)]Man(b1-4)GlcNAc(b1-4)[Fuc(a1-6)]GlcNAc
Outline: as §1

[27] = biological target: Gal(b1-3)GlcNAc(b1-3)Gal(b1-4)GlcNAc(b1-3)Gal(b1-4)GlcNAc(b1-2)[Gal(b1-3)GlcNAc(b1-3)Gal(b1-4)GlcNAc(b1-3)Gal(b1-4)GlcNAc(b1-6)]Man(a1-6)[Gal(b1-3)GlcNAc(b1-3)Gal(b1-4)GlcNAc(b1-3)Gal(b1-4)GlcNAc(b1-2)Man(a1-3)]Man(b1-4)GlcNAc(b1-4)[Fuc(a1-6)]GlcNAc
Outline: as §1

[28] = biological target: Gal(b1-3)GlcNAc(b1-3)Gal(b1-4)GlcNAc(b1-6)[Gal(b1-3)GlcNAc(b1-3)]Gal(b1-4)Glc
Outline: as §1

[29] = biological target: Gal(b1-3)GlcNAc(b1-3)Gal(b1-4)[Fuc(a1-3)]GlcNAc
Outline: as §1

[30] = biological target: Gal(b1-3)GlcNAc(b1-3)Gal(b1-4)[Fuc(a1-3)]GlcNAc(b1-6)[Gal(b1-3)GlcNAc(b1-3)]Gal(b1-4)Glc
Outline: as §1

[31] = biological target: Gal(b1-3)GlcNAc(b1-3)GalNAc
Outline: as §1

[32] = biological target: Gal(b1-3)GlcNAc(b1-6)Gal(b1-4)GlcNAc
Outline: as §1

[33] = biological target: Gal(b1-3)GlcNAc(b1-6)GalNAc
Outline: as §1

B1: PhypaEULS3 (Physcomitrella patens) (protein)
chain: MLPVRLHCKADPNFNLAAVPGQGPVMVPFSPNDDFQVWYKDVTMSTRVKDETGSSAFSLINKATGQALRHAPEDLAQCLLADYDSNALDQTVLWTMSEDMGQGYCCIRLASQITRNLDVFRGDKKSGGVKEGSPVITFAWKKQDNQIWKMITAILEQKLISEEDLNSAVDHHHHHH
- glycan array binding signal (z-score) [1]: -0.475
- glycan array binding signal (z-score) [2]: -0.01
- glycan array binding signal (z-score) [3]: 3.21
- glycan array binding signal (z-score) [4]: 0.697
- glycan array binding signal (z-score) [5]: -0.773
- glycan array binding signal (z-score) [6]: 0.694
- glycan array binding signal (z-score) (Gal(a1-3)GalNAc): -0.376
- glycan array binding signal (z-score) [7]: -0.823
- glycan array binding signal (z-score) [8]: 0.42
- glycan array binding signal (z-score) (Gal(a1-4)Gal(b1-4)Glc): -1.92
- glycan array binding signal (z-score) (Gal(a1-4)Gal(b1-4)GlcNAc): -1.79
- glycan array binding signal (z-score) [9]: 0.241
- glycan array binding signal (z-score) [10]: 0.15
- glycan array binding signal (z-score) (Gal(a1-4)GlcNAc): -0.25
- glycan array binding signal (z-score) (Gal(a1-6)Glc): -0.442
- glycan array binding signal (z-score) (Gal(b1-2)Gal): -1.14
- glycan array binding signal (z-score) (Gal(b1-3)Gal): -1.06
- glycan array binding signal (z-score) (Gal(b1-3)Gal(b1-4)GlcNAc): -0.594
- glycan array binding signal (z-score) (Gal(b1-3)GalNAc): 1.06
- glycan array binding signal (z-score) [11]: 0.396
- glycan array binding signal (z-score) [12]: 0.857
- glycan array binding signal (z-score) (Gal(b1-3)GalNAc(b1-3)Gal): -0.393
- glycan array binding signal (z-score) [13]: -0.504
- glycan array binding signal (z-score) [14]: -0.383
- glycan array binding signal (z-score) [15]: -0.222
- glycan array binding signal (z-score) (Gal(b1-3)GlcNAc): -1.3
- glycan array binding signal (z-score) [16]: 0.21
- glycan array binding signal (z-score) [17]: 2.09
- glycan array binding signal (z-score) (Gal(b1-3)GlcNAc(b1-2)Man): 0.702
- glycan array binding signal (z-score) [18]: -1.01
- glycan array binding signal (z-score) [19]: -0.657
- glycan array binding signal (z-score) [20]: 1.05
- glycan array binding signal (z-score) [21]: 0.13
- glycan array binding signal (z-score) [22]: -0.669
- glycan array binding signal (z-score) [23]: -0.828
- glycan array binding signal (z-score) [24]: -1.09
- glycan array binding signal (z-score) [25]: -0.459
- glycan array binding signal (z-score) [26]: -0.384
- glycan array binding signal (z-score) [27]: 0.919
- glycan array binding signal (z-score) [28]: 1.64
- glycan array binding signal (z-score) [29]: 0.815
- glycan array binding signal (z-score) [30]: 0.149
- glycan array binding signal (z-score) [31]: 1.25
- glycan array binding signal (z-score) [32]: 1.01
- glycan array binding signal (z-score) [33]: 1.29
